In patent US8137941B2, “Chondroitin polymerase and DNA encoding the same” (Seikagaku Corporation, priority 2001, dated 2012):

Assay: Analysis of influence by temperature on the enzyme reaction
Assay type: biochemical, shark
Conditions: 25, 30, 37, 40, 45 or 100° C. examined

B1: enzyme of the present invention: His-tagged recombinant chondroitin polymerase (SEQ ID NO:2) of Escherichia coli strain K4, expressed from pTrcHisC in E. coli TOP10 (protein, listed as Escherichia coli)
chain: MSILNQAINLYKNKNYRQALSLFEKVAEIYDVSWVEANIKLCQTALNLSEEVDKLNRKAVIDIDAATKIMCSNAKAISLNEVEKNEIISKYREITAKKSERAELKEVEPIPLDWPSDLTLPPLPESTNDYVWAGKRKELDDYPRKQLIIDGLSIVIPTYNRAKILAITLACLCNQKTIYDYEVIVADDGSKENIEEIVREFESLLNIKYVRQKDYGYQLCAVRNLGLRAAKYNYVAILDCDMAPNPLWVQSYMELLAVDDNVALIGPRKYIDTSKHTYLDFLSQKSLINEIPEIITNNQVAGKVEQNKSVDWRIEHFKNTDNLRLCNTPFRFFSGGNVAFAKKWLFRAGWFDEEFTHWGGEDNEFGYRLYREGCYFRSVEGAMAYHQEPPGKENETDRAAGKNITVQLLQQKVPYFYRKKEKIESATLKRVPLVSIYIPAYNCSKYIVRCVESALNQTITDLEVCICDDGSTDDTLRILQEHYANHPRVRFISQKNKGIGSASNTAVRLCRGFYIGQLDSDDFLEPDAVELCLDEFRKDLSLACVYTTNRNIDREGNLISNGYNWPIYSREKLTSAMICHHFRMFTARAWNLTEGFNESISNAVDYDMYLKLSEVGPFKHINKICYNRVLHGENTSIKKLDIQKENHFKVVNESLSRLGIKKYKYSPLTNLNECRKYTWEKIENDL
modifications: His tag
For B1, which “reaction temperature giving the product having the largest molecular weight” value is on record?
The value was 25 °C.

And the “reaction temperature of the highest incorporation” value?
Its value is 30 °C.
